Patent publication US20180371093A1
These are yes or no findings as the source states them, for the method shown. Some entries that bind do so weakly or less than the wild type.

The chains behind the UniProt entries cited, without tags or fusion partners. Residues count along the entry.
UniProt Q15116, residues 25-167: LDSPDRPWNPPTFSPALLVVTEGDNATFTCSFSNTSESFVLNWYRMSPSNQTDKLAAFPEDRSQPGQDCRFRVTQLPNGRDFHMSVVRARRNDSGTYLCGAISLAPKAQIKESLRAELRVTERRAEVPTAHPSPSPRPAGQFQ

Assays:
[1] = target: Programmed Death 1 (PD-1) (UniProt Q15116); test: FACS ligand blocking: binding of PD-L2-Ig to PD-1 at increasing mAb concentration
[2] = target: Programmed Death 1 (PD-1) (UniProt Q15116); test: FACS ligand blocking: binding of PD-L1-Ig to PD-1 at increasing mAb concentration (legend paragraph 212 names 'PD-L1-Ig and PD-L2-Ig' for FIG. 8A)
[3] = target: Programmed Death 1 (PD-1) (UniProt Q15116); test: FACS competition binding: fluorescently labelled murine mAb BAP049 (Mu mAb) against increasing unlabelled mAb; MFI of the labelled mAb is read
[4] = target: Programmed Death 1 (PD-1) (UniProt Q15116); test: FACS competition binding on PD-1-expressing 300.19 cells: constant concentration of Alexa 488-labelled murine mAb BAP049, serial dilutions of the test mAb; x axis = conc. test mAb / conc. labelled murine mAb
[5] = target: Programmed Death 1 (PD-1) (UniProt Q15116); test: FACS binding analysis, median fluorescence units at 200, 100, 50, 25 and 12.5 ng/ml (cells not named in the legend)

B1: Mu mAb (antibody, V domains shown)
VH: QVQLQQSGSELVRPGASVKLSCKASGYTFTTYWMHWVRQRPGQGLEWIGNIYPGTGGSNFDEKFKNRTSLTVDTSSTTAYMHLASLTSEDSAVYYCTRWTTGTGAYWGQGTLVTVSA
VL: DIVMTQSPSSLTVTAGEKVTMSCKSSQSLLDSGNQKNFLTWYQQKPGQPPKLLIFWASTRESGVPDRFTGSGSVTDFTLTISSVQAEDLAVYYCQNDYSYPCTFGGGTKLEIK
For B1, the binding [1] was “binds”, the binding [2] was “binds” and the binding [3] was “binds”. The binding [4] was “binds”.

B2: BAP049-hum03 (antibody, human IgG4 S228P, kappa, V domains shown)
VH: EVQLVQSGAEVKKPGESLRISCKGSGYTFTTYWMHWIRQSPSRGLEWLGNIYPGTGGSNFDEKFKNRFTISRDNSKNTLYLQMNSLRAEDTAVYYCTRWTTGTGAYWGQGTTVTVSS
VL: DIQMTQSPSSLSASVGDRVTITCKSSQSLLDSGNQKNFLTWYQQKPGQAPRLLIYWASTRESGIPPRFSGSGYGTDFTLTINNIESEDAAYYFCQNDYSYPYTFGQGTKVEIKR
In the case of B2, the binding [5] is reported as “binds” and the binding [4] is reported as “binds”.

B3: Chi mAb (Tyr) (antibody, human IgG4 S228P, kappa, V domains shown)
VH: QVQLQQSGSELVRPGASVKLSCKASGYTFTTYWMHWVRQRPGQGLEWIGNIYPGTGGSNFDEKFKNRTSLTVDTSSTTAYMHLASLTSEDSAVYYCTRWTTGTGAYWGQGTTVTVSS
VL: DIVMTQSPSSLTVTAGEKVTMSCKSSQSLLDSGNQKNFLTWYQQKPGQPPKLLIFWASTRESGVPDRFTGSGSVTDFTLTISSVQAEDLAVYYCQNDYSYPYTFGQGTKVEIKR
In the case of B3, the binding [1] is reported as “binds”, the binding [2] is reported as “binds” and the binding [3] is reported as “binds”. The binding [4] was “binds”.

B4: BAP049-hum04 (antibody, human IgG4 S228P, kappa, V domains shown)
VH: EVQLVQSGAEVKKPGESLRISCKGSGYTFTTYWMHWIRQSPSRGLEWLGNIYPGTGGSNFDEKFKNRFTISRDNSKNTLYLQMNSLRAEDTAVYYCTRWTTGTGAYWGQGTTVTVSS
VL: EIVLTQSPATLSLSPGERATLSCKSSQSLLDSGNQKNFLTWYQQKPGKAPKLLIYWASTRESGVPSRFSGSGSGTDFTFTISSLQPEDIATYYCQNDYSYPYTFGQGTKVEIKR
With B4 the binding [5] was “binds” and the binding [4] was “binds”.

B5: Chi mAb (Cys) (antibody, human IgG4 S228P, kappa, V domains shown)
VH: QVQLQQSGSELVRPGASVKLSCKASGYTFTTYWMHWVRQRPGQGLEWIGNIYPGTGGSNFDEKFKNRTSLTVDTSSTTAYMHLASLTSEDSAVYYCTRWTTGTGAYWGQGTTVTVSS
VL: DIVMTQSPSSLTVTAGEKVTMSCKSSQSLLDSGNQKNFLTWYQQKPGQPPKLLIFWASTRESGVPDRFTGSGSVTDFTLTISSVQAEDLAVYYCQNDYSYPCTFGQGTKVEIKR
In the case of B5, the binding [3] is reported as “binds”.

B6: BAP049-hum16 (antibody, human IgG4 S228P, kappa, V domains shown)
VH: EVQLVQSGAEVKKPGESLRISCKGSGYTFTTYWMHWVRQAPGQGLEWMGNIYPGTGGSNFDEKFKNRFTISRDNSKNTLYLQMNSLRAEDTAVYYCTRWTTGTGAYWGQGTTVTVSS
VL: EIVLTQSPDFQSVTPKEKVTITCKSSQSLLDSGNQKNFLTWYQQKPGQAPRLLIYWASTRESGVPSRFSGSGSGTDFTFTISSLEAEDAATYYCQNDYSYPYTFGQGTKVEIKR
B6 was tested, and the binding [5] was “binds” and the binding [4] was “binds”.
